The list is a part of this screen's results and no random one: it gathers tests that were run many times, whatever their T/C, doses with no T/C, and many T/C values between a quarter and a half above the control. Further doses and runs are listed elsewhere. T/C gives the treated animals as a percentage of the vehicle group. Some entries give survivors of the animals treated and no T/C: the source files T/C as zero there, which appears to mark a toxic dose or a test without result, not a measured value. Some survivor counts are full or nearly so, which does not show that the dose was tolerated: the source hardly ever lists a survival T/C far under the control, and the zero likely stands for such cases as well. Survivors were counted at the toxicity check, usually on the fifth day, unless a day is given; later deaths do not show. Schedules are NCI's codes, taken here to give the interval after Q, in days (D) or hours (H), and the number of doses after X. Some doses were run more than once; the results are listed from low to high. For survival time, this PubChem deposit counts one and a half times the control or more as active, and values a quarter to a half above the control carry no call in these data; other NCI protocols may use other cut-offs. Some T/C values carry the count of animals alive at the toxicity check (mostly the fifth day); where none is given, no animal had died by that day. Signs of the kind (2×) say how often a value occurs here.
System: AKR/Lw mice, AKR lymphoma ip, median survival T/C
Assay: NCI In Vivo Anticancer Drug Screen. Data for tumor model Lymphoma AKR (Transplanted) (intraperitoneal) in AKR/Lw mice
Details: T/C endpoint: median survival time, higher T/C = longer survival
Procedure: The antitumor activity of compounds was measured in mice bearing transplantable tumors. Survival or tumor size were measured and the results are expressed as the measurement made in the treated group (T) divided by the measurement made in the vehicle treated control group (C). The tumor model used in this assay is Lymphoma AKR (Transplanted) (intraperitoneal) in AKR/Lw mice

[1] = dose: 50.0 mg/kg/injection, schedule: Q01DX009 (ip), vehicle: saline
[2] = dose: 50.0 mg/kg/injection, schedule: Q04DX003 (ip), vehicle: saline
[3] = dose: 100.0 mg/kg/injection, schedule: Q01DX009 (ip), vehicle: saline
[4] = dose: 200.0 mg/kg/injection, schedule: Q04DX003 (ip), vehicle: other
[5] = dose: 400.0 mg/kg/injection, schedule: Q04DX003 (ip), vehicle: saline
[6] = dose: 400.0 mg/kg/injection, schedule: Q01DX001 (ip), vehicle: saline
[7] = dose: 20.0 mg/kg/injection, schedule: Q01DX009 (ip), vehicle: saline
[8] = dose: 30.0 mg/kg/injection, schedule: Q01DX009 (ip), vehicle: saline
[9] = dose: 30.0 mg/kg/injection, schedule: Q04DX003 (ip), vehicle: saline
[10] = dose: 35.0 mg/kg/injection, schedule: Q01DX009 (ip), vehicle: saline
[11] = dose: 300.0 mg/kg/injection, schedule: Q01DX001 (ip), vehicle: saline
[12] = dose: 500.0 mg/kg/injection, schedule: Q01DX001 (ip), vehicle: saline
[13] = dose: 600.0 mg/kg/injection, schedule: Q01DX001 (ip), vehicle: saline

## Nc1nc(=S)c2ncn(C3CC(O)C(CO)O3)c2[nH]1 (stereo not drawn)
dose: 25.0 mg/kg/injection, schedule: Q01DX009 (ip), vehicle: saline, evaluated on day 45
  T/C: 97 % of control
dose: 25.0 mg/kg/injection, schedule: Q01DX009 (ip), vehicle: saline, evaluated on day 60
  T/C: 87, 92, 100 % of control
dose: 50.0 mg/kg/injection, schedule: Q01DX009 (ip), vehicle: saline, evaluated on day 45
  T/C: 107 % of control
dose: 50.0 mg/kg/injection, schedule: Q01DX009 (ip), vehicle: saline, evaluated on day 60
  T/C: 103 and 116 % of control
[1]
  survivor count: 10 of 10
[2]
  survivor count: 7 of 10
dose: 100.0 mg/kg/injection, schedule: Q01DX009 (ip), vehicle: saline, evaluated on day 45
  T/C: 107 % of control
dose: 100.0 mg/kg/injection, schedule: Q01DX009 (ip), vehicle: saline, evaluated on day 60
  T/C: 101, 104 [9 of 10 alive], 111 % of control [9 of 10 alive]
[3]
  survivor count: 10 of 10
dose: 100.0 mg/kg/injection, schedule: Q04DX003 (ip), vehicle: saline, evaluated on day 45
  T/C: 110 % of control
dose: 100.0 mg/kg/injection, schedule: Q04DX003 (ip), vehicle: saline, evaluated on day 60
  T/C: 87, 114, 122 % of control
[4]
  T/C: 130 % of control
  survivor count: 9 of 10
dose: 400.0 mg/kg/injection, schedule: Q01DX001 (ip), vehicle: saline, evaluated on day 45
  T/C: 105 % of control
dose: 400.0 mg/kg/injection, schedule: Q01DX001 (ip), vehicle: saline, evaluated on day 60
  T/C: 92, 100 [8 of 10 alive], 110 % of control
dose: 400.0 mg/kg/injection, schedule: Q01DX009 (ip), vehicle: saline
  survivor count: 10 of 10
dose: 400.0 mg/kg/injection, schedule: Q04DX003 (ip), vehicle: other
  survivor count: 8 of 10
[5]
  T/C: 136 % of control

## COc1cc2c(cc1OC)C(C#N)C2 (stereo not drawn)
dose: 100.0 mg/kg/injection, schedule: Q04DX003 (ip), vehicle: Klucel (hydroxypropylcellulose) (HPC)
  survivor count: 10 of 10
dose: 200.0 mg/kg/injection, schedule: Q04DX003 (ip), vehicle: Klucel (hydroxypropylcellulose) (HPC)
  survivor count: 7 of 10
dose: 400.0 mg/kg/injection, schedule: Q04DX003 (ip), vehicle: Klucel (hydroxypropylcellulose) (HPC)
  survivor count: 0 of 10

## O=C1CCSCCN1
[6]
  survivor count: 10 of 10

## CC(=O)c1cccc(N)c1
dose: 200.0 mg/kg/injection, schedule: Q01DX001 (ip), vehicle: Klucel (hydroxypropylcellulose) (HPC)
  T/C: 127 % of control

## C[C@]12CCC(=O)C=C1CC[C@@H]1[C@@H]2[C@@H](O)C[C@@]2(C)[C@H]1CC[C@]2(O)C(=O)CO
dose: 100.0 mg/kg/injection, schedule: Q01DX005 (sc), vehicle: steroid suspending solution
  survivor count: 10 of 10
dose: 150.0 mg/kg/injection, schedule: Q01DX005 (sc), vehicle: steroid suspending solution
  survivor count: 10 of 10
dose: 200.0 mg/kg/injection, schedule: Q01DX005 (sc), vehicle: steroid suspending solution
  survivor count: 9 of 10

## O=c1[nH]c(=O)n(C2CC(O)C(CO)O2)cc1F (stereo not drawn)
dose: 5.0 mg/kg/injection, schedule: Q01DX009 (ip), vehicle: saline
  survivor count: 10 of 10
dose: 6.2 mg/kg/injection, schedule: Q04DX003 (ip), vehicle: saline
  survivor count: 10 of 10
dose: 10.0 mg/kg/injection, schedule: Q01DX009 (ip), vehicle: saline
  survivor count: 10 of 10
dose: 12.5 mg/kg/injection, schedule: Q01DX010 (ip), vehicle: saline
  T/C: 135 % of control
dose: 15.0 mg/kg/injection, schedule: Q01DX009 (ip), vehicle: saline
  T/C: 125 % of control
dose: 15.0 mg/kg/injection, schedule: Q04DX003 (ip), vehicle: saline
  survivor count: 10 of 10
[7]
  T/C: 86, 110 [8 of 10 alive], 121 % of control
  survivor count: 9 of 10
dose: 25.0 mg/kg/injection, schedule: Q01DX009 (ip), vehicle: saline
  T/C: 100, 106, 108 [9 of 10 alive], 131, 137 % of control
dose: 25.0 mg/kg/injection, schedule: Q01DX010 (ip), vehicle: saline
  T/C: 129 % of control
dose: 25.0 mg/kg/injection, schedule: Q01DX015 (ip), vehicle: saline
  T/C: 139 % of control
dose: 25.0 mg/kg/injection, schedule: Q04DX003 (ip), vehicle: saline
  T/C: 132 % of control
[8]
  T/C: 125 and 131 % of control
  survivor count: 10 of 10
[9]
  T/C: 92, 97, 100, 118 % of control
  survivor count: 9 of 10 and 10 of 10
[10]
  T/C: 143 % of control
  survivor count: 9 of 10
[1]
  T/C: 113, 115, 116 [9 of 10 alive], 130, 150 % of control
  survivor count: 10 of 10
dose: 50.0 mg/kg/injection, schedule: Q01DX010 (ip), vehicle: saline
  survivor count: 9 of 10
[2]
  T/C: 103 and 104 % of control
  survivor count: 9 of 10 and 10 of 10
dose: 60.0 mg/kg/injection, schedule: Q01DX009 (ip), vehicle: saline
  survivor count: 10 of 10
dose: 60.0 mg/kg/injection, schedule: Q04DX003 (ip), vehicle: saline, evaluated on day 45
  T/C: 94, 104, 107, 127 % of control
dose: 60.0 mg/kg/injection, schedule: Q04DX003 (ip), vehicle: saline, evaluated on day 60
  T/C: 86 % of control
dose: 60.0 mg/kg/injection, schedule: Q04DX003 (ip), vehicle: saline
  survivor count: 10 of 10
dose: 75.0 mg/kg/injection, schedule: Q01DX009 (ip), vehicle: saline
  survivor count: 10 of 10
dose: 75.0 mg/kg/injection, schedule: Q01DX010 (ip), vehicle: saline
  survivor count: 10 of 10
dose: 75.0 mg/kg/injection, schedule: Q01DX015 (ip), vehicle: saline
  survivor count: 10 of 10
[3]
  T/C: 86 (2×) and 123 % of control
  survivor count: 10 of 10
dose: 100.0 mg/kg/injection, schedule: Q01DX015 (ip), vehicle: saline
  survivor count: 10 of 10
dose: 120.0 mg/kg/injection, schedule: Q04DX003 (ip), vehicle: saline, evaluated on day 45
  T/C: 100, 105, 111, 117 % of control
dose: 120.0 mg/kg/injection, schedule: Q04DX003 (ip), vehicle: saline, evaluated on day 60
  T/C: 86 and 107 % of control
dose: 200.0 mg/kg/injection, schedule: Q01DX009 (ip), vehicle: saline
  survivor count: 10 of 10
dose: 200.0 mg/kg/injection, schedule: Q04DX003 (ip), vehicle: saline
  T/C: 100, 115, 117, 129 % of control
dose: 240.0 mg/kg/injection, schedule: Q01DX001 (ip), vehicle: saline
  T/C: 133 % of control
[11]
  T/C: 112, 128, 141 % of control
  survivor count: 10 of 10
dose: 300.0 mg/kg/injection, schedule: Q04DX003 (ip), vehicle: saline
  survivor count: 10 of 10
[6]
  T/C: 127, 130, 136, 148 % of control
[5]
  survivor count: 10 of 10
[12]
  T/C: 129 % of control
  survivor count: 9 of 10
[13]
  T/C: 118 [9 of 10 alive], 131, 150 % of control
  survivor count: 10 of 10

Reference: PubChem BioAssay AID190 (DTP/NCI, 2004)
